This data set in a line: general procedure: solution-phase peptide synthesis; HATU/N,N-diisopropylethylamine; EDC hydrochloride/HOBt hydrate/N,N-diisopropylet. The note with it: trifluoroacetate.
[1] abbreviates: late stage modification step, over 2 stages.

The results in this text go back to patent US20130122024A1 (Bayer Intellectual Property GmbH, priority 2011, published 2013).

With “N-(6-{[(5S)-5-Amino-5-carboxypentyl]amino}-6-oxohexyl)-N-methyl-L-valyl-N-[(3R,4S,5S)-1-{(2S)-2-[(1R,2R)-3-{[(2S)-3-(1H-indol-3-yl)-1-(1,2-oxazinan-2-yl)-1-oxopropan-2-yl]amino}-1-methoxy-2-methyl-3-oxopropyl]pyrrolidin-1-yl}-3-methoxy-5-methyl-1-oxoheptan-4-yl]-N-methyl-L-valinamide trifluoroacetate”, where the note is “late stage modification step”, the step yield is 97% of theory.

For the substance “N-(tert-butoxycarbonyl)-N-methyl-L-valyl-N-[(3R,4S,5S)-1-{(2S)-2-[(1R,2R)-3-(benzyloxy)-1-methoxy-2-methyl-3-oxopropyl]pyrrolidin-1-yl}-3-methoxy-5-methyl-1-oxoheptan-4-yl]-N-methyl-L-valinamide”, the step yield (coupling step) was 55% of theory.

As to “N-(4-{2-[6-(3-{[(2R)-2-Amino-2-carboxyethyl]sulphanyl}-2,5-dioxopyrrolidin-1-yl)hexanoyl]hydrazino}-4-oxobutyl)-N-methyl-L-valyl-N-[(3R,4S,5S)-1-{(2S)-2-[(1R,2R)-3-{[(2S)-1-amino-3-(1H-indol-3-yl)-1-oxopropan-2-yl]amino}-1-methoxy-2-methyl-3-oxopropyl]pyrrolidin-1-yl}-3-methoxy-5-methyl-1-oxoheptan-4-yl]-N-methyl-L-valinamide”, the step yield (late stage modification step) is listed as 48% of theory. Consider “N-(6-{[(5S)-5-Amino-5-carboxypentyl]amino}-6-oxohexyl)-N-methyl-L-threonyl-N-[(3R,4S,5S)-1-{(2S)-2-[(1R,2R)-3-{[(2S)-3-(1H-indol-3-yl)-1-(1,2-oxazinan-2-yl)-1-oxopropan-2-yl]amino}-1-methoxy-2-methyl-3-oxopropyl]pyrrolidin-1-yl}-3-methoxy-5-methyl-1-oxoheptan-4-yl]-N-methyl-L-valinamide trifluoroacetate”, for which the step yield (late stage modification step) was 47% of theory. In the case of “N-(6-aminohexyl)-N-methyl-L-valyl-N-[(3R,4S,5S)-1-{(2S)-2-[(1R,2R)-3-{[(1S,2R)-1-(1,4-dihydro-3H-2,3-benzoxazin-3-ylcarbonyl)-2-phenylcyclopropyl]amino}-1-methoxy-2-methyl-3-oxopropyl]pyrrolidin-1-yl}-3-methoxy-5-methyl-1-oxoheptan-4-yl]-N-methyl-L-valinamide”, under setting [1], the step yield is given as 23% of theory over 2 stages. For the substance “N-[(9H-fluoren-9-ylmethoxy)carbonyl]-N-methyl-L-valyl-N-[(3R,4S,5S)-3-methoxy-1-{(2S)-2-[(1R,2R)-1-methoxy-2-methyl-3-{[(1S,2R)-1-(1,2-oxazinan-2-ylcarbonyl)-2-phenylcyclopropyl]amino}-3-oxopropyl]pyrrolidin-1-yl}-5-methyl-1-oxoheptan-4-yl]-N-methyl-L-valinamide”, where the note is “coupling step”, the step yield was 59% of theory. Take “N-(6-aminohexyl)-N-methyl-L-valyl-N-[(3R,4S,5S)-3-methoxy-1-{(2S)-2-[(1R,2R)-1-methoxy-2-methyl-3-{[(2S,3S)-1-(1,2-oxazinan-2-yl)-1-oxo-3-phenylbutan-2-yl]amino}-3-oxopropyl]pyrrolidin-1-yl}-5-methyl-1-oxoheptan-4-yl]-N-methyl-L-valinamide”: the step yield under setting [1] is 63% of theory over 2 stages.
